# Source: PubChem BioAssay AID2685 (National Center for Advancing Translational Sciences (NCATS), 2010)
# Some of the results follow. Shown are side measurements of this screen, not its main read-out; they come without a call. Most of these compounds were active or inconclusive in the main read-out, so they are no random draw. The note in brackets gives the kind of curve behind each potency; many fits are weak.
# Experiment: qHTS Assay for Lipid Storage Modulators in Drosophila S3 Cells;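 for cell number change: cells counted by Cell Tracker Red CMTPX staining in the red channel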
# Conditions: BODIPY lipid droplet fluorescence, 18-24 h; for cell number change: measured here: cell count max response, cells fed with added oleic acid
# Summary of the method: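 Drosophila S3 cells loaded with oleic acid (400 uM, as added) and compounds at several concentrations; lipid droplets imaged by 488-nm laser-scanning cytometry, 500–530 nm intensity and object ratio to cell channel. Percent activity normalized to 20 uM Triacsin C.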
# [1] = measured here: cell number channel AC50, cells fed with added oleic acid
# [2] = measured here: lipid fluorescence (Fed channel) AC50, cells fed with added oleic acid
Compound,cell number change [%],AC50 [1],AC50 [2]
Cc1cc(Cl)ccc1NC(=S)NCCCO,26.4,"0.116 µM [rising, full curve, poor fit]","29.1 µM [rising, partial curve, poor fit]"
O=C(Cc1ccc2c(c1)OCCO2)N1CCN(S(=O)(=O)c2cccc(Cl)c2Cl)CC1,8.52,–,–
OCCN(CC#CC(O)(c1ccccc1)c1ccccc1)CCO,24.4,–,–
COc1ccccc1-c1cn[nH]c1-c1ccc(O)cc1O,-22.7,–,–
CCOc1ccc(C(=O)O)cn1,-14.1,–,"14.6 µM [falling, single point]"
O=C(COc1cccnc1[N+](=O)[O-])Nc1ccc(N2CCOCC2)cc1,-27.4,–,"6.51 µM [falling, single point]"
O=c1oc(-c2cccs2)nc2sc3c(c12)CCCC3,16.7,–,"0.82 µM [falling, single point]"
CCCCNc1ccc(C(CC(N)=O)NC(=O)Cc2ccc(Br)cc2)cc1[N+](=O)[O-] (centres undefined),-7.16,–,"0.58 µM [falling, full curve, poor fit]"
Cn1c(CCNC(=O)c2cccs2)nnc1SCC(=O)N1CCN(c2ccccc2)CC1,-11.7,–,–
CCC(CC)NCc1ccc(OC)cc1OC,-63.7,–,–
CC1(C)C(=O)OC(c2ccccc2)C(C)(C)C1=O (centres undefined),-10.6,–,"0.651 µM [falling, partial curve, poor fit]"
COCCCNC(=O)c1ccc2nc3ccccc3c(=O)n2c1,–,"4.11 µM [rising, single point]","3.26 µM [rising, partial curve]"
N#Cc1ccccc1S(=O)(=O)N1CCN(C(=O)c2cc(-c3ccccc3)nn2-c2ccccc2)CC1,–,–,"29.1 µM [falling, single point]"
C=Cn1cc[n+](CC(=O)c2ccc(Cl)c(Cl)c2)c1,10.9,–,"6.51 µM [rising, partial curve]"
O=C(Nc1ccc2nn(-c3ccccc3)nc2c1)c1ccc(Br)o1,–,"2.31 µM [rising, partial curve]",–
COc1cc(C(=O)Nc2cccc(-n3cnnn3)c2)cc(Cl)c1OC,–,–,"8.2 µM [falling, partial curve]"
Nc1c(-c2n[nH]c(=S)n2-c2ccc(Cl)cc2Cl)cnn1-c1ccccc1,51.4,"4.61 µM [rising, full curve, poor fit]",–
O=C(c1cc(F)ccc1F)N1CCC(N2CCC(C(=O)N3CCCC3)CC2)CC1,17.2,–,"0.58 µM [rising, single point]"
COc1ccc(CCNC(=O)Cn2nnc(-c3ccc(N(C)C)cc3)n2)cc1OC,-76.5,"5.8 µM [falling, partial curve]","3.66 µM [falling, full curve]"
CCC(C)(C(=O)NC1CCCCC1)N(C(=O)C1CCC(=O)N1)c1ccc(C)cc1 (centres undefined),-5.61,–,–

# Of the compounds above, 2 contain a nitro group on carbon:
Compound,cell number change [%],AC50 [1],AC50 [2]
O=C(COc1cccnc1[N+](=O)[O-])Nc1ccc(N2CCOCC2)cc1,-27.4,–,"6.51 µM [falling, single point]"
CCCCNc1ccc(C(CC(N)=O)NC(=O)Cc2ccc(Br)cc2)cc1[N+](=O)[O-] (centres undefined),-7.16,–,"0.58 µM [falling, full curve, poor fit]"

# Remaining list, next part

Compound,cell number change [%],AC50 [1],AC50 [2]
Cc1cc(SCC(=O)Nc2cccc(S(=O)(=O)N3CCOCC3)c2)nc2ccccc12,8.85,–,"0.92 µM [rising, single point]"
CCOc1ccc(OCC(=O)Nc2nccs2)cc1,-45.2,"1.84 µM [falling, partial curve]","2.91 µM [falling, partial curve]"
CN(C(=O)COC(=O)c1ccc(S(=O)(=O)N2CCOCC2)cc1)C1CCCCC1,17.5,–,"0.231 µM [rising, full curve]"
CCOCCCNC(=O)Cn1cc2c(n1)CCCCC2,-49.9,"20.6 µM [falling, partial curve, poor fit]","25.9 µM [falling, partial curve, poor fit]"
CC(=O)c1c(C)[nH]c(C(=O)OCC(=O)Nc2ccc(Cl)cc2[N+](=O)[O-])c1C,-32.1,"16.4 µM [falling, single point]","8.2 µM [falling, partial curve]"
COC(=O)c1sc(NC(=O)c2cccc([N+](=O)[O-])c2)c(C(N)=O)c1C,19.6,–,"3.66 µM [rising, partial curve, poor fit]"
CCCCN(CCCC)c1ccc(C(=O)c2ccccc2C(=O)O)c(O)c1,-20.3,–,"8.2 µM [falling, partial curve]"
O=C(COC(=O)c1ccc(S(=O)(=O)Nc2ccccc2)cc1)NCc1ccco1,-40.3,"9.2 µM [falling, partial curve]",–
CCN1CCN(C(=O)CN(CC)S(=O)(=O)c2ccc3ccccc3c2)CC1,1.72,–,"6.51 µM [rising, single point]"
CC1CC(C)CN(C(=O)c2ccc3c(c2)N(Cc2ccccc2)CCS3)C1 (centres undefined),-1.11,–,"6.51 µM [rising, single point]"
CN(C)S(=O)(=O)c1ccc(C(=O)NCCN=C2NS(=O)(=O)c3ccccc32)cc1,14.4,–,–
Cc1cccc(Cn2cnc3c(NS(C)(=O)=O)c(C)c(C)cc32)c1,97.2,–,–
CCCCN=C(Nc1ccc(Cl)cc1)c1cccnc1,96.2,"18.4 µM [rising, partial curve, poor fit]","23.1 µM [rising, partial curve]"
CCCCc1cc2c(c(NC(C)=O)n1)c(=O)oc1ccccc12,0.854,–,–
O=c1ccc(-c2ccccc2)no1,9.96,–,"0.517 µM [falling, single point]"
COc1ccc(NS(=O)(=O)c2ccc3oc(=O)c4[nH]c(=O)c(=O)n(C)c4c3c2)cc1,-10.2,–,–
COc1ccc2cc3cc(C(=O)N4CCN(Cc5ccc6c(c5)OCO6)CC4)oc3nc2c1,-15.3,–,"0.0651 µM [falling, full curve, poor fit]"
CS(=O)(=O)N1CCC(C(=O)Nc2ccccc2)CC1,18,–,"29.1 µM [falling, single point]"
N#C/C(C(=O)NCc1ccco1)=C1/SC(Cc2ccc(F)cc2)C(=O)N1c1ccccc1 (centres undefined),–,"3.26 µM [rising, single point]","3.66 µM [rising, partial curve]"
CCCCOC(=O)c1nc[nH]c1C(=O)OCCCC,133,"29.1 µM [rising, single point]","29.1 µM [rising, single point]"

Compound,cell number change [%],AC50 [1],AC50 [2]
CCOC(=O)c1ccc(NS(=O)(=O)c2ccc(SC)cc2)cc1,-64.1,"16.4 µM [falling, partial curve]","0.651 µM [falling, full curve, poor fit]"
COCC(=O)N1CCN(c2cccc(C(F)(F)F)c2)CC1,–,"2.06 µM [rising, partial curve, poor fit]",–
CCOC(=O)c1cn(Cc2c(C)c(C)c(C)c(C)c2C)nn1,-31.4,"2.06 µM [falling, full curve, poor fit]","5.8 µM [falling, partial curve, poor fit]"
Cc1ccc(C)n1-c1ccc(C#N)cn1,-33.3,"18.4 µM [falling, single point]","18.4 µM [falling, single point]"
O=Cc1cn(CCOc2ccccc2F)c2ccccc12,–,–,"2.91 µM [falling, single point]"
NC(=O)C1CCN(c2nc(-c3ccc4ccccc4c3)cs2)CC1,3.73,–,"25.9 µM [rising, partial curve, poor fit]"
CC(C)NC(=O)CSc1nnc(-c2ccc(S(=O)(=O)N3CCCC3)cc2)n1CC1CCCO1 (centres undefined),-18.9,–,"16.4 µM [falling, partial curve, poor fit]"
C[C@]12CCC(=O)C[C@@H]1CC[C@@H]1[C@@H]2CC[C@]2(C)C=CC[C@@H]12,-30.6,"0.92 µM [falling, full curve, poor fit]","0.92 µM [falling, full curve, poor fit]"
Cc1nc(Nc2ccc(S(=O)(=O)N3CCCCC3C)cc2)c2nnn(Cc3ccccc3)c2n1 (centres undefined),-6.87,–,"29.1 µM [falling, single point]"
CCN(CC)S(=O)(=O)c1ccc(N2CCc3cc(OC)c(OC)cc3C2)nc1,3.17,–,"6.51 µM [rising, single point]"
Cc1ccc(SCc2[nH]nc3c2C2(C(=O)Nc4ccc([N+](=O)[O-])cc42)C(C#N)=C(N)O3)cc1 (centres undefined),-23.7,–,"13 µM [falling, partial curve]"
N/C(=N\OC(=O)COc1ccccc1Cl)c1ccccn1,-1.84,–,"3.26 µM [rising, partial curve]"
Nc1ccc2nc(COc3ccccc3)[nH]c2c1,-15.7,–,"0.00461 µM [rising, full curve, poor fit]"
O=C(c1ccco1)N1CCN(C(=O)C2CC(c3ccc(Cl)c(Cl)c3)=NO2)CC1 (centres undefined),1.42,–,–
COc1cc(C(=O)NCc2ccc(S(N)(=O)=O)cc2)ccc1OCC(=O)N1CCOCC1,6.43,–,–
COc1ccc(NC(=O)c2ccc(Cl)c(S(=O)(=O)N3CC(C)OC(C)C3)c2)cn1 (centres undefined),-0.139,"4.11 µM [rising, single point]",–
CCc1cccc(C)c1NC(=O)c1ccc2nc(N3CCOCC3)sc2c1,14.4,–,"8.2 µM [rising, partial curve]"
Cc1cc(O)ccc1N/C=C(\C#N)c1nc2ccccc2o1,-34.4,"29.1 µM [falling, single point]","29.1 µM [falling, single point]"
O=C(O)c1ccc(NC(=O)c2cn(-c3ccccc3)nc2-c2ccc(Br)cc2)cc1,-13,"1.16 µM [rising, single point]","0.651 µM [rising, partial curve]"
